Results deposited as PubChem BioAssay AID504774 (Drosophila RNAi Screening Center, 2011).

Aim: 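Fly genes whose loss alters survival after alkylation damage to DNA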 (primary screen)
Cells: Drosophila Kc167 cells
Reagent: long dsRNA against Drosophila genes, about 0.25 µg dsRNA per well
Duration: about 6 days: 3 days knock-down, then 3 days with or without MMS
Conditions: methyl methanesulphonate 0.004% (w/v) for 3 days after knock-down
Read-out: 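Viability in wells given MMS, read as ATP luminescence, normalised by quantiles plate by plate and averaged across replicates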
Reading the numbers: mean viability with MMS: higher = more surviving cells after MMS
The screen tested about 23,000 reagents; below is an unselected part of those with a known target gene and a result. 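Values are quantile-normalised luminescence on an arbitrary scale; higher means more cells surviving MMS.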 Reagents against one gene are numbered here. Not all columns of the deposit are shown. No sequences are given here.

{"Gene": "CG7295", "dsRNA no.": 1, "mean viability with MMS": 3.46e6}
{"Gene": "CG31848", "dsRNA no.": 1, "mean viability with MMS": 3.59e6}
{"Gene": "Wdfy2 (WD repeat and FYVE domain containing 2)", "dsRNA no.": 1, "mean viability with MMS": 3.71e6}
{"Gene": "CG14427", "dsRNA no.": 1, "mean viability with MMS": 3.61e6}
{"Gene": "Rab19", "dsRNA no.": 1, "mean viability with MMS": 3.89e6}
{"Gene": "ppk5 (pickpocket 5)", "dsRNA no.": 1, "mean viability with MMS": 3.53e6}
{"Gene": "CG5390", "dsRNA no.": 1, "mean viability with MMS": 3.66e6}
{"Gene": "rho-7 (rhomboid-7)", "dsRNA no.": 1, "mean viability with MMS": 3.69e6}
{"Gene": "CG7110", "dsRNA no.": 1, "mean viability with MMS": 3.48e6}
{"Gene": "CG7110", "dsRNA no.": 2, "mean viability with MMS": 3.54e6}
{"Gene": "Or94b (Odorant receptor 94b)", "dsRNA no.": 1, "mean viability with MMS": 3.67e6}
{"Gene": "CG12516", "dsRNA no.": 1, "mean viability with MMS": 3.65e6}
{"Gene": "Crag", "dsRNA no.": 1, "mean viability with MMS": 3.53e6}
{"Gene": "CG15472", "dsRNA no.": 1, "mean viability with MMS": 3.55e6}
{"Gene": "p23", "dsRNA no.": 1, "mean viability with MMS": 3.55e6}
{"Gene": "Polr2G (RNA polymerase II subunit G)", "dsRNA no.": 1, "mean viability with MMS": 3.06e6}
{"Gene": "Lac (Lachesin)", "dsRNA no.": 1, "mean viability with MMS": 3.49e6}
{"Gene": "Cip4 (Cdc42-interacting protein 4)", "dsRNA no.": 1, "mean viability with MMS": 3.45e6}
{"Gene": "Cip4 (Cdc42-interacting protein 4)", "dsRNA no.": 2, "mean viability with MMS": 3.47e6}
{"Gene": "Cip4 (Cdc42-interacting protein 4)", "dsRNA no.": 3, "mean viability with MMS": 3.27e6}
{"Gene": "CG10911", "dsRNA no.": 1, "mean viability with MMS": 3.66e6}
{"Gene": "CG30127 (retired record)", "dsRNA no.": 1, "mean viability with MMS": 3.35e6}
{"Gene": "CG30127 (retired record)", "dsRNA no.": 2, "mean viability with MMS": 3.55e6}
{"Gene": "CG13131", "dsRNA no.": 1, "mean viability with MMS": 3.42e6}
{"Gene": "CG13131", "dsRNA no.": 2, "mean viability with MMS": 3.04e6}
{"Gene": "mRpS6 (mitochondrial ribosomal protein S6)", "dsRNA no.": 1, "mean viability with MMS": 3.40e6}
{"Gene": "E2f2 (E2F transcription factor 2)", "dsRNA no.": 1, "mean viability with MMS": 3.63e6}
{"Gene": "bug (bunker gear)", "dsRNA no.": 1, "mean viability with MMS": 3.62e6}
{"Gene": "CG12219", "dsRNA no.": 1, "mean viability with MMS": 3.55e6}
{"Gene": "CG32237", "dsRNA no.": 1, "mean viability with MMS": 3.78e6}
{"Gene": "CG32237", "dsRNA no.": 2, "mean viability with MMS": 3.83e6}
{"Gene": "CG13766", "dsRNA no.": 1, "mean viability with MMS": 3.65e6}
{"Gene": "CG33229", "dsRNA no.": 1, "mean viability with MMS": 3.41e6}
{"Gene": "CG33232 (retired record)", "dsRNA no.": 1, "mean viability with MMS": 3.47e6}
{"Gene": "CG33232 (retired record)", "dsRNA no.": 2, "mean viability with MMS": 3.43e6}
{"Gene": "Irp-1B (Iron regulatory protein 1B)", "dsRNA no.": 1, "mean viability with MMS": 3.75e6}
{"Gene": "CG1024", "dsRNA no.": 1, "mean viability with MMS": 3.48e6}
{"Gene": "Sf3b1 (Splicing factor 3b subunit 1)", "dsRNA no.": 1, "mean viability with MMS": 2.90e6}
{"Gene": "CG14194", "dsRNA no.": 1, "mean viability with MMS": 3.52e6}
{"Gene": "Trxr1 (Thioredoxin reductase 1)", "dsRNA no.": 1, "mean viability with MMS": 3.47e6}
{"Gene": "Trxr1 (Thioredoxin reductase 1)", "dsRNA no.": 2, "mean viability with MMS": 3.53e6}
{"Gene": "CG9519", "dsRNA no.": 1, "mean viability with MMS": 3.60e6}
{"Gene": "Eglp3 (Entomoglyceroporin 3)", "dsRNA no.": 1, "mean viability with MMS": 3.69e6}
{"Gene": "CG14712", "dsRNA no.": 1, "mean viability with MMS": 3.35e6}
{"Gene": "CG15711", "dsRNA no.": 1, "mean viability with MMS": 3.47e6}
